Source: patent publication US20060188913A1, “Methods and products for enhancing immune responses using imidazoquinoline compounds” (University of Iowa Research Foundation, priority 2001, published 2006)
For at least one compound, name, drawing or mass did not settle the structure.

Key:
[1] = system: BALB/c mice immunized with HBsAg; assay: Anti-HBs antibody response (endpoint dilution ELISA) in mice immunized with HBsAg plus adjuvant; format: in vivo, mouse
[2] = system: BALB/c mice immunized with HBsAg; assay: CTL response (51Cr release) in mice immunized with HBsAg plus adjuvant; format: in vivo, mouse; conditions: 4 weeks post prime, FIG. 15 and 16; control ODN either alone or with R-848
[3] = FIG. 18, compared to antigen alone

CCOCc1nc2c(N)nc3ccccc3c2n1CC(C)(C)O [R-848, Resiquimod]
IgG2A/IgG1 ratio ([1]; 6 weeks post prime, higher doses of R-848 (0.01 μg to 0.1 μg to 10.0 μg), data not shown): A higher IgG2A/IgG1 ratio was observed | level of IgG1 antibody [1, 3]: decrease the level of IgG1 | level of IgG2a antibody [1, 3]: increase the level of IgG2a | augmentation of CTL response against HBsAg [2]: able to augment the CTL response over antigen alone, however it was not as effective as CpG ODN
